Laboratory results taken from PubChem BioAssay AID188 (DTP/NCI, 2004).
The mice bore no tumour; each value counts animals alive of those treated. Survivors were counted at the toxicity check, usually on the fifth day, unless a day is given; later deaths do not show. Schedules are NCI's codes, read here as Q, the interval in days (D) or hours (H), X, the number of doses. Some doses were run more than once; their values stand side by side, smallest first.

Test system: CD2F1 mice, nontumored, toxicity/survival
Test: NCI In Vivo Anticancer Drug Screen. Data for tumor model Nontumored Animals (Toxicity Test) in CD2F1 (CDF1) mice

COc1cccc2c1C(=O)c1c(O)c3c(c(O)c1C2=O)C[C@@](O)(C(=O)CO)C[C@@H]3OC1CC(N)C(O)C(C)O1 (some centres not stated)
survivor count (dose: 0.5 mg/kg/injection, schedule: Q04DX003 (ip), vehicle: saline): 5 of 5
survivor count (dose: 1.0 mg/kg/injection, schedule: Q04DX003 (ip), vehicle: saline): 4 of 4 and 5 of 5
survivor count (dose: 1.3 mg/kg/injection, schedule: Q04DX003 (ip), vehicle: saline): 5 of 5
survivor count (dose: 1.3 mg/kg/injection, schedule: Q10HX004 (ip), vehicle: saline): 5 of 5
survivor count (dose: 2.0 mg/kg/injection, schedule: Q04DX003 (ip), vehicle: saline): 4 of 4 and 5 of 5
survivor count (dose: 2.16 mg/kg/injection, schedule: Q04DX003 (ip), vehicle: saline): 5 of 5
survivor count (dose: 2.16 mg/kg/injection, schedule: Q10HX004 (ip), vehicle: saline): 5 of 5
survivor count (dose: 2.4 mg/kg/injection, schedule: Q01DX001 (ip), vehicle: saline): 4 of 4
survivor count (dose: 3.6 mg/kg/injection, schedule: Q01DX001 (ip), vehicle: saline): 4 of 4
survivor count (dose: 3.6 mg/kg/injection, schedule: Q04DX003 (ip), vehicle: saline): 5 of 5
survivor count (dose: 3.6 mg/kg/injection, schedule: Q10HX004 (ip), vehicle: saline): 5 of 5
survivor count (dose: 4.0 mg/kg/injection, schedule: Q01DX001 (ip), vehicle: saline): 4 of 4 and 6 of 6
survivor count (dose: 4.0 mg/kg/injection, schedule: Q04DX003 (ip), vehicle: saline): 4 of 4 and 5 of 5
survivor count (dose: 4.75 mg/kg/injection, schedule: Q01DX001 (ip), vehicle: saline): 6 of 6
survivor count (dose: 5.9 mg/kg/injection, schedule: Q01DX001 (ip), vehicle: saline): 5 of 5
survivor count (dose: 6.0 mg/kg/injection, schedule: Q01DX001 (ip), vehicle: saline): 4 of 4
survivor count (dose: 6.0 mg/kg/injection, schedule: Q04DX003 (ip), vehicle: saline): 5 of 5
survivor count (dose: 6.0 mg/kg/injection, schedule: Q10HX004 (ip), vehicle: saline): 3 of 4
survivor count (dose: 6.33 mg/kg/injection, schedule: Q01DX001 (ip), vehicle: saline): 6 of 6
survivor count (dose: 6.7 mg/kg/injection, schedule: Q01DX001 (ip), vehicle: saline): 10 of 10
survivor count (dose: 7.1 mg/kg/injection, schedule: Q01DX001 (ip), vehicle: saline): 10 of 10
survivor count (dose: 8.0 mg/kg/injection, schedule: Q01DX001 (ip), vehicle: saline): 4 of 4 and 6 of 6
survivor count (dose: 8.0 mg/kg/injection, schedule: Q04DX003 (ip), vehicle: saline): 4 of 4 and 5 of 5
survivor count (dose: 8.44 mg/kg/injection, schedule: Q01DX001 (ip), vehicle: saline): 6 of 6
survivor count (dose: 8.9 mg/kg/injection, schedule: Q01DX001 (ip), vehicle: saline): 5 of 5
survivor count (dose: 9.6 mg/kg/injection, schedule: Q01DX001 (ip), vehicle: clinical formulation): 6 of 6
survivor count (dose: 9.6 mg/kg/injection, schedule: Q01DX001 (ip), vehicle: saline): 4 of 4 and 6 of 6
survivor count (dose: 10.0 mg/kg/injection, schedule: Q01DX001 (ip), vehicle: saline): 10 of 10 and 4 of 4
survivor count (dose: 10.0 mg/kg/injection, schedule: Q04DX003 (ip), vehicle: saline): 5 of 5
survivor count (dose: 10.0 mg/kg/injection, schedule: Q10HX004 (ip), vehicle: saline): 5 of 5
survivor count (dose: 10.7 mg/kg/injection, schedule: Q01DX001 (ip), vehicle: saline): 9 of 10 and 10 of 10
survivor count (dose: 11.25 mg/kg/injection, schedule: Q01DX001 (ip), vehicle: saline): 2 of 4 and 6 of 6
survivor count (dose: 12.0 mg/kg/injection, schedule: Q01DX001 (ip), vehicle: saline): 4 of 4
survivor count (dose: 13.3 mg/kg/injection, schedule: Q01DX001 (ip), vehicle: saline): 5 of 5
survivor count (dose: 15.0 mg/kg/injection, schedule: Q01DX001 (ip), vehicle: saline): 4 of 5 and 6 of 6
survivor count (dose: 16.0 mg/kg/injection, schedule: Q01DX001 (ip), vehicle: clinical formulation): 6 of 6
survivor count (dose: 16.0 mg/kg/injection, schedule: Q01DX001 (ip), vehicle: saline): 0 of 2, 7 of 10, 8 of 10, 9 of 10, 10 of 10, 4 of 4, 6 of 6
survivor count (dose: 19.2 mg/kg/injection, schedule: Q01DX001 (ip), vehicle: clinical formulation): 6 of 6
survivor count (dose: 19.2 mg/kg/injection, schedule: Q01DX001 (ip), vehicle: saline): 6 of 6
survivor count (dose: 20.0 mg/kg/injection, schedule: Q01DX001 (ip), vehicle: saline): 2 of 4, 4 of 5, 5 of 5
survivor count (dose: 24.0 mg/kg/injection, schedule: Q01DX001 (ip), vehicle: saline): 3 of 10, 4 of 10, 6 of 10
survivor count (dose: 26.67 mg/kg/injection, schedule: Q01DX001 (ip), vehicle: saline): 2 of 2
survivor count (dose: 26.7 mg/kg/injection, schedule: Q01DX001 (ip), vehicle: saline): 0 of 2
survivor count (dose: 30.0 mg/kg/injection, schedule: Q01DX001 (ip), vehicle: saline): 3 of 5
survivor count (dose: 32.0 mg/kg/injection, schedule: Q01DX001 (ip), vehicle: saline): 6 of 6
survivor count (dose: 64.0 mg/kg/injection, schedule: Q01DX001 (ip), vehicle: saline): 4 of 5
survivor count (dose: 128.0 mg/kg/injection, schedule: Q01DX001 (ip), vehicle: saline): 2 of 2
